Reference: patent US20120088774A1, “ACTIVE PHARMACEUTICAL INGREDIENT ADSORBED ON SOLID SUPPORT” (LEK PHARMACEUTICALS D.D., priority 2009, published 2012)
At least one structure is not confirmed: it was looked up by name or label, or the drawing left a doubt.

Experiment: Dissolution of crystalline fenofibrate and fenofibrate adsorbate in water
Assay type: physicochemical

Structure (SMILES): CC(C)OC(=O)C(C)(C)Oc1ccc(C(=O)c2ccc(Cl)cc2)cc1 [Crystalline fenofibrate, fenofibrate]
- Amount dissolved (2 min): 0.0002 µg/mL
- Amount dissolved (5 min): 0.024 µg/mL
- Amount dissolved (10 min): 0.018 µg/mL
- Amount dissolved (15 min): 0.04 µg/mL
- Amount dissolved (25 min): 0.016 µg/mL
- Amount dissolved (40 min): 0.024 µg/mL
- Amount dissolved (60 min): 0.014 µg/mL
